{"source": "PubChem BioAssay AID1259308 (NCATS, 2017)", "test": "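Genes whose loss raises luciferase production in HEK293 cells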 (primary screen)", "cells": "human HEK293 embryonic kidney cells stably expressing firefly luciferase (HEK-CMV-Luc2-Hygro)", "reagents": "single siRNA against human genes, 0.8 pmol siRNA per well", "timing": "72 h", "read-out": "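Luciferase light (ONE-Glo) measured on one replicate plate set and viability (CellTiter-Glo) on the other, scaled to a negative control siRNA, with robust z-scores and luciferase per cell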", "scale": "total luciferase, z-score and total luciferase, % of control: higher = more reporter protein produced", "rule for the call": "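Active when the median/MAD z-score for overall luciferase is greater than 3; a gene was taken forward for validation with new siRNAs if at least two of its three siRNAs passed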", "calls": "active = raised luciferase; inactive = no rise", "note": "The deposit covers about 59,000 reagents; shown is a part drawn at random. Of all reagents, about 1,510 (2.6%) were called active. 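Calls use total luciferase alone and ignore viability, so some active siRNAs may act by altering cell number.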 Reagents against one gene are numbered here. Not all columns of the deposit are shown."}
{"Target gene": "COPZ2 (GeneID 51226)", "siRNA no.": 1, "total luciferase, z-score": -0.741, "total luciferase, % of control": 67.2, "Outcome": "inactive"}
{"Target gene": "COPZ2 (GeneID 51226)", "siRNA no.": 2, "total luciferase, z-score": 0.262, "total luciferase, % of control": 87.1, "Outcome": "inactive"}
{"Target gene": "COPZ2 (GeneID 51226)", "siRNA no.": 3, "total luciferase, z-score": 1.16, "total luciferase, % of control": 105, "Outcome": "inactive"}
{"Target gene": "CCT3 (GeneID 7203)", "siRNA no.": 1, "total luciferase, z-score": 0.943, "total luciferase, % of control": 101, "Outcome": "inactive"}
{"Target gene": "CCT3 (GeneID 7203)", "siRNA no.": 2, "total luciferase, z-score": 1.68, "total luciferase, % of control": 115, "Outcome": "inactive"}
{"Target gene": "CCT3 (GeneID 7203)", "siRNA no.": 3, "total luciferase, z-score": 2.06, "total luciferase, % of control": 123, "Outcome": "inactive"}
{"Target gene": "TMEM50B (GeneID 757)", "siRNA no.": 1, "total luciferase, z-score": 2.34, "total luciferase, % of control": 128, "Outcome": "inactive"}
{"Target gene": "TMEM50B (GeneID 757)", "siRNA no.": 2, "total luciferase, z-score": 0.807, "total luciferase, % of control": 97.9, "Outcome": "inactive"}
{"Target gene": "TMEM50B (GeneID 757)", "siRNA no.": 3, "total luciferase, z-score": -0.526, "total luciferase, % of control": 71.4, "Outcome": "inactive"}
{"Target gene": "CXorf38 (GeneID 159013)", "siRNA no.": 1, "total luciferase, z-score": -0.584, "total luciferase, % of control": 70.3, "Outcome": "inactive"}
{"Target gene": "CXorf38 (GeneID 159013)", "siRNA no.": 2, "total luciferase, z-score": 0.552, "total luciferase, % of control": 92.9, "Outcome": "inactive"}
{"Target gene": "CXorf38 (GeneID 159013)", "siRNA no.": 3, "total luciferase, z-score": 1.47, "total luciferase, % of control": 111, "Outcome": "inactive"}
{"Target gene": "IGFBP3 (GeneID 3486)", "siRNA no.": 1, "total luciferase, z-score": 0.834, "total luciferase, % of control": 98.5, "Outcome": "inactive"}
{"Target gene": "IGFBP3 (GeneID 3486)", "siRNA no.": 2, "total luciferase, z-score": 0.398, "total luciferase, % of control": 89.8, "Outcome": "inactive"}
{"Target gene": "IGFBP3 (GeneID 3486)", "siRNA no.": 3, "total luciferase, z-score": -0.0601, "total luciferase, % of control": 80.7, "Outcome": "inactive"}

In a second layout: 5 of the entries above
TMEM50B (GeneID 757) #1: total luciferase, z-score = 2.34; total luciferase, % of control = 128; Outcome = inactive
TMEM50B (GeneID 757) #2: total luciferase, z-score = 0.807; total luciferase, % of control = 97.9; Outcome = inactive
TMEM50B (GeneID 757) #3: total luciferase, z-score = -0.526; total luciferase, % of control = 71.4; Outcome = inactive
CXorf38 (GeneID 159013) #1: total luciferase, z-score = -0.584; total luciferase, % of control = 70.3; Outcome = inactive
CXorf38 (GeneID 159013) #2: total luciferase, z-score = 0.552; total luciferase, % of control = 92.9; Outcome = inactive

Continued.
{"Target gene": "TBXA2R (GeneID 6915)", "siRNA no.": 1, "total luciferase, z-score": 0.799, "total luciferase, % of control": 97.8, "Outcome": "inactive"}
{"Target gene": "TBXA2R (GeneID 6915)", "siRNA no.": 2, "total luciferase, z-score": 0.366, "total luciferase, % of control": 89.2, "Outcome": "inactive"}
{"Target gene": "TBXA2R (GeneID 6915)", "siRNA no.": 3, "total luciferase, z-score": -1.67, "total luciferase, % of control": 48.6, "Outcome": "inactive"}
{"Target gene": "TGIF2LX (GeneID 90316)", "siRNA no.": 1, "total luciferase, z-score": 0.987, "total luciferase, % of control": 102, "Outcome": "inactive"}
{"Target gene": "TGIF2LX (GeneID 90316)", "siRNA no.": 2, "total luciferase, z-score": 0.239, "total luciferase, % of control": 86.6, "Outcome": "inactive"}
{"Target gene": "TGIF2LX (GeneID 90316)", "siRNA no.": 3, "total luciferase, z-score": 0.0645, "total luciferase, % of control": 83.2, "Outcome": "inactive"}
{"Target gene": "ARPC2 (GeneID 10109)", "siRNA no.": 1, "total luciferase, z-score": -0.055, "total luciferase, % of control": 80.8, "Outcome": "inactive"}
{"Target gene": "ARPC2 (GeneID 10109)", "siRNA no.": 2, "total luciferase, z-score": -1.43, "total luciferase, % of control": 53.5, "Outcome": "inactive"}
{"Target gene": "ARPC2 (GeneID 10109)", "siRNA no.": 3, "total luciferase, z-score": -0.279, "total luciferase, % of control": 76.3, "Outcome": "inactive"}
{"Target gene": "AGK (GeneID 55750)", "siRNA no.": 1, "total luciferase, z-score": 1.96, "total luciferase, % of control": 121, "Outcome": "inactive"}
{"Target gene": "AGK (GeneID 55750)", "siRNA no.": 2, "total luciferase, z-score": 0.692, "total luciferase, % of control": 95.7, "Outcome": "inactive"}
{"Target gene": "AGK (GeneID 55750)", "siRNA no.": 3, "total luciferase, z-score": -0.272, "total luciferase, % of control": 76.5, "Outcome": "inactive"}
{"Target gene": "GALNT14 (GeneID 79623)", "siRNA no.": 1, "total luciferase, z-score": -1.21, "total luciferase, % of control": 57.9, "Outcome": "inactive"}
{"Target gene": "GALNT14 (GeneID 79623)", "siRNA no.": 2, "total luciferase, z-score": 1.51, "total luciferase, % of control": 112, "Outcome": "inactive"}
{"Target gene": "GALNT14 (GeneID 79623)", "siRNA no.": 3, "total luciferase, z-score": 0.358, "total luciferase, % of control": 89, "Outcome": "inactive"}
{"Target gene": "GPHRA (GeneID 653519)", "siRNA no.": 1, "total luciferase, z-score": -0.35, "total luciferase, % of control": 74.9, "Outcome": "inactive"}
{"Target gene": "GPHRA (GeneID 653519)", "siRNA no.": 2, "total luciferase, z-score": -1.15, "total luciferase, % of control": 58.9, "Outcome": "inactive"}
{"Target gene": "GPHRA (GeneID 653519)", "siRNA no.": 3, "total luciferase, z-score": 2.28, "total luciferase, % of control": 127, "Outcome": "inactive"}
